Experimental data from patent publication US20240317852A1 (Molecular Partners, published 2024).
These are yes or no findings as the source states them, for the method shown. Some binding calls cover weakened binding; strength is not graded here.

By UniProt entry, the sequences of proteins in these tests, tags left out. Residues count along the entry.
UniProt P20138, residues 18-364: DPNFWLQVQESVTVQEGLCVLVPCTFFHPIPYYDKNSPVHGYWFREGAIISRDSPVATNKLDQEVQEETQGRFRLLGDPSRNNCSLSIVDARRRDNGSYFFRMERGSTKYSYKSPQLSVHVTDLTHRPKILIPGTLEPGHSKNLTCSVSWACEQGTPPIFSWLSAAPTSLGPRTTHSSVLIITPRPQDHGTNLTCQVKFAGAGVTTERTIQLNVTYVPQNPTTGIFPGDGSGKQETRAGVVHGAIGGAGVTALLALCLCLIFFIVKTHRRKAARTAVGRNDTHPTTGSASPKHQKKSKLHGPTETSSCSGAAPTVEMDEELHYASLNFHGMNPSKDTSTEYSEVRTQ

Columns and labels:
[1] = molecular target: human CD33 expressed on Molm-13 tumor cells (human) (UniProt P20138); experiment: flow cytometry on Molm-13 N1 cells, detection with rabbit anti-DARPin antibody and Alexa Fluor 488 anti-rabbit antibody, MFI AF488
[2] = molecular target: biotinylated human CD33 full-length extracellular domain (residues 18-259) with C-terminal Fc tag and Avi tag (human) (UniProt P20138); experiment: SPR (ProteOn), bio.hCD33 immobilized on the chip, DARPin as analyte at a single concentration of 100 nM, 1:1 Langmuir fit

Row | binding [1] | binding [2] | Binder
1 | binds | binds | DARPin® protein #29 in monospecific (single domain) format (designed binder, the same molecule is used here) MRGSHHHHHHGSDLGVKLLLAAERGQLDEVRILLKAGADVNAKDIAEGYTPLHIAAYQGHLEIVEVLLKAGADVNAKDRYGKTPLHLAAIGGHLEIVEVLLKAGADVNAQDNKGSTPADLAADYGHQDIAEVLQKAA
2 | binds | binds | DARPin® protein #30 in monospecific (single domain) format (designed binder, the same molecule is used here) MRGSHHHHHHGSDLGKKLLLAAERGQLDEVRILLKAGADVNAKDRAEGYTPLHIAAYQGHLEIVEVLLKAGADVNAKDRYGKTPLHLAAISGHLEIVEVLLKAGADVNAQDNKGSTPADLAADYGHQDIAEVLQKAA
